PubChem BioAssay AID504804, Drosophila RNAi Screening Center | 2011

- Test: 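Fly genes whose loss lessens doxorubicin-driven cell death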 (primary screen)
- System: Drosophila Kc cells
- Reagents: long dsRNA against Drosophila genes, 0.5 µg dsRNA per well
- Time to read-out: 96 h (48 h knock-down, then 48 h drug)
- Challenge: doxorubicin 5 µg/ml for 48 h, added 48 h after dsRNA
- Measured: 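Viability measured as cellular ATP by luminescence after 48 h knock-down then 48 h doxorubicin at 5 µg/ml; unnormalised plate counts for each replicate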
- Reading the numbers: raw ATP luminescence: higher = more viable cells, protection from doxorubicin
- Rule for the call: 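Active when both duplicate wells lie at least 2 SD above the plate mean and protection is confirmed by rescreening and independent dsRNAs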
In all, the deposit lists about 19,000 reagents; this is a random part of those that have a named target and a result. In the full data, 47 (0.25%) were called active. 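Signals are raw, not normalised; exact z-scores behind calls not deposited; actives needed confirmation, so some wells reaching 2 SD are inactive.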 A plus sign joins genes that one reagent is predicted to hit.

The first 3 entries, to show the layout:
| gene | DRSC id | SD above plate mean | raw ATP luminescence, replicate 1 | raw ATP luminescence, replicate 2 | Call |
| --- | --- | --- | --- | --- | --- |
| CG4806 | DRSC04491 | – | 53060 | 58317 | inactive |
| CG34300 | DRSC13977 | – | 2.22e5 | 2.27e5 | inactive |
| salto | DRSC06291 | – | 68637 | 58883 | inactive |

The listing, repeating the preview:
| gene | DRSC id | SD above plate mean | raw ATP luminescence, replicate 1 | raw ATP luminescence, replicate 2 | Call |
| --- | --- | --- | --- | --- | --- |
| CG4806 | DRSC04491 | – | 53060 | 58317 | inactive |
| CG34300 | DRSC13977 | – | 2.22e5 | 2.27e5 | inactive |
| salto | DRSC06291 | – | 68637 | 58883 | inactive |
| fok (fledgling of Klp38B) | DRSC02103 | – | 47767 | 42607 | inactive |
| ss (spineless) | DRSC17069 | – | 59920 | 61240 | inactive |
| CG5885 | DRSC02910 | – | 81817 | 55093 | inactive |
| CG12061 | DRSC20715 | – | 3.26e5 | 2.91e5 | inactive |
| U2af38 (U2 small nuclear riboprotein auxiliary factor 38) | DRSC00796 | – | 69290 | 50750 | inactive |
| CG30281 | DRSC04528 | – | 78680 | 78367 | inactive |
| CG11703 | DRSC14356 | – | 42830 | 41780 | inactive |
| CG14645 | DRSC12231 | – | 70280 | 68027 | inactive |
| Ae2 (Anion exchanger 2) | DRSC08997 | – | 1.59e5 | 1.76e5 | inactive |
| Ae2 (Anion exchanger 2) | DRSC10969 | – | 46200 | 47963 | inactive |
| osi (orsai) | DRSC02931 | – | 65620 | 72183 | inactive |
| CG4360 | DRSC15566 | – | 46870 | 48530 | inactive |
| Cp15 (Chorion protein 15) | DRSC11118 | – | 84793 | 84923 | inactive |
| Tk (Tachykinin) | DRSC14954 | – | 41663 | 47457 | inactive |
| Lztr1 (Leucine zipper like transcription regulator 1) | DRSC18176 | – | 53340 | 50090 | inactive |
| Lztr1 (Leucine zipper like transcription regulator 1) | DRSC18647 | – | 61250 | 58880 | inactive |
| knk (knickkopf) | DRSC15993 | – | 56677 | 55027 | inactive |
| Ppr-Y | DRSC20892 | – | 2.35e5 | 2.23e5 | inactive |
| Delta | DRSC16648 | – | 57330 | 65360 | inactive |
| scaf (scarface) | DRSC04849 | – | 62367 | 60187 | inactive |
| Khc (Kinesin heavy chain) | DRSC07448 | – | 53667 | 62267 | inactive |
| Jra (Jun-related antigen) | DRSC07447 | at least 3 SD above plate mean | 1.17e5 | 1.00e5 | active |
| Arp1 (Actin-related protein 1) | DRSC14118 | – | 55010 | 50587 | inactive |
| Hsp23 (Heat shock protein 23) | DRSC11188 | – | 32910 | 35280 | inactive |
| Wnt10 (Wnt oncogene analog 10) | DRSC00990 | – | 2.84e5 | 3.11e5 | inactive |
| Wnt10 (Wnt oncogene analog 10) | DRSC02797 | – | 31447 | 28513 | inactive |
| CG17124 | DRSC02580 | – | 51003 | 87517 | inactive |
| PlexB (Plexin B) | DRSC17177 | – | 57960 | 22060 | inactive |
| Ptp10D (Protein tyrosine phosphatase 10D) | DRSC20272 | – | 3.20e5 | 3.45e5 | inactive |
| lncRNA:CR32553 (long non-coding RNA:CR32553) | DRSC19229 | – | 2.09e5 | 2.03e5 | inactive |
| sns (sticks and stones) | DRSC06423 | – | 24937 | 34067 | inactive |
| sns (sticks and stones) | DRSC07687 | – | 59587 | 62763 | inactive |
| sns (sticks and stones) | DRSC07688 | – | 1.94e5 | 2.46e5 | inactive |
| sns (sticks and stones) | DRSC07689 | – | 38407 | 1.05e5 | inactive |
| sns (sticks and stones) | DRSC07691 | – | 46453 | 82740 | inactive |
| sns (sticks and stones) | DRSC07692 | – | 28723 | 38017 | inactive |
| Or69a (Odorant receptor 69a) | DRSC11243 | – | 95523 | 83003 | inactive |
| CG2003 | DRSC15411 | – | 46420 | 59980 | inactive |
| Sans (Scaffold protein containing ankyrin repeats and SAM domain) | DRSC06357 | – | 69167 | 73077 | inactive |
| M7BP (Myosin-7a binding protein) | DRSC05932 | – | 93580 | 77593 | inactive |
| trsn (translin) | DRSC06078 | – | 42713 | 63387 | inactive |
| MED6 (Mediator complex subunit 6) | DRSC16500 | – | 55970 | 30560 | inactive |
| His1:CG33816 + His1:CG33828 + His1:CG33819 + 21 more | DRSC21266 | – | 3.08e5 | 2.66e5 | inactive |
| Pgm2a (Phosphoglucomutase 2a) | DRSC07068 | – | 61533 | 63740 | inactive |
| CG18598 | DRSC15356 | – | 48540 | 54920 | inactive |
| CG14562 | DRSC11723 | – | 69647 | 62243 | inactive |
| CG34382 | DRSC08999 | – | 1.32e5 | 1.72e5 | inactive |
| CG34382 | DRSC10166 | – | 62287 | 63933 | inactive |
| CG34382 | DRSC10167 | – | 66893 | 74880 | inactive |
| CG18477 + CG31780 | DRSC01955 | – | 75637 | 80833 | inactive |
| Clk (Clock) | DRSC11117 | – | 73893 | 75593 | inactive |
| CG32147 | DRSC09346 | – | 61630 | 80840 | inactive |
| PPO1 (Prophenoloxidase 1) | DRSC05929 | – | 67680 | 57760 | inactive |
| Pi3K92E (Phosphatidylinositol 3-kinase 92E) | DRSC16788 | – | 37033 | 28887 | inactive |
